Experimental data: PubChem BioAssay AID743121 (NCATS, 2013)
Aim: 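Partners whose loss is lethal together with topoisomerase I blockade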 (primary screen). Cell system: MDA-MB-231 cells, a human breast cancer line. Reagents: single siRNA against human genes, 20 nM siRNA (0.8 pmol per well). Time to read-out: 120 h (drug added 48 h after transfection, read 72 h later). Challenge: camptothecin 20 nM (about EC30) for 72 h; vehicle 0.1% DMSO in parallel plates. Read-out: 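CellTiter-Glo ATP signal, scaled to control siRNA as percent viability; sensitisation given as log2 of untreated divided by camptothecin-treated viability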. Direction: log2 vehicle/camptothecin viability: higher = stronger sensitisation to camptothecin. Active means: 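Each gene scored by redundant siRNA activity (RSA) over its individual siRNA ratios; a gene is called active at p < 0.001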.
The whole screen tested about 26,000 reagents; below is a random part of them. In the full data, 167 (0.63%) are marked active. 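Calls are per gene from RSA p-values that are not deposited; an individual active-marked siRNA can sensitise only weakly.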 The numbers tell different reagents against one gene apart. Not all columns of the deposit are shown.

log2 vehicle/camptothecin viability | outcome | gene | reagent no.
0.332 | active | ZC3HC1 (zinc finger C3HC-type containing 1) | 1
1.7 | active | ZC3HC1 (zinc finger C3HC-type containing 1) | 2
0.129 | active | ZC3HC1 (zinc finger C3HC-type containing 1) | 3
0.651 | active | ZC3HC1 (zinc finger C3HC-type containing 1) | 4
0.381 | inactive | MT1E (metallothionein 1E) | 1
-0.119 | inactive | MT1E (metallothionein 1E) | 2
0.052 | inactive | MT1E (metallothionein 1E) | 3
-0.261 | inactive | DRD3 (dopamine receptor D3) | 1
-0.649 | inactive | DRD3 (dopamine receptor D3) | 2
0.14 | inactive | DRD3 (dopamine receptor D3) | 3
-0.641 | inactive | DRD3 (dopamine receptor D3) | 4
-0.231 | inactive | MTMR8 (myotubularin related protein 8) | 1
-0.127 | inactive | MTMR8 (myotubularin related protein 8) | 2
0.00232 | inactive | MTMR8 (myotubularin related protein 8) | 3
-0.324 | inactive | MTMR8 (myotubularin related protein 8) | 4
-0.167 | inactive | ENDOV (endonuclease V) | 1
0.00173 | inactive | ENDOV (endonuclease V) | 2
1 | inactive | ENDOV (endonuclease V) | 3
-0.166 | inactive | ENDOV (endonuclease V) | 4
-0.388 | inactive | PFKFB4 (6-phosphofructo-2-kinase/fructose-2,6-biphosphatase 4) | 1
-0.263 | inactive | PFKFB4 (6-phosphofructo-2-kinase/fructose-2,6-biphosphatase 4) | 2
-0.326 | inactive | PFKFB4 (6-phosphofructo-2-kinase/fructose-2,6-biphosphatase 4) | 3
-0.414 | inactive | PFKFB4 (6-phosphofructo-2-kinase/fructose-2,6-biphosphatase 4) | 4
-0.0653 | inactive | MCF2 (MCF.2 cell line derived transforming sequence) | 1
-0.595 | inactive | MCF2 (MCF.2 cell line derived transforming sequence) | 2
-0.227 | inactive | MCF2 (MCF.2 cell line derived transforming sequence) | 3
-0.327 | inactive | MCF2 (MCF.2 cell line derived transforming sequence) | 4
0.257 | inactive | HMGCR (3-hydroxy-3-methylglutaryl-CoA reductase) | 1
0.213 | inactive | HMGCR (3-hydroxy-3-methylglutaryl-CoA reductase) | 2
-0.102 | inactive | HMGCR (3-hydroxy-3-methylglutaryl-CoA reductase) | 3
0.0319 | inactive | HMGCR (3-hydroxy-3-methylglutaryl-CoA reductase) | 4

Next part; the last 8 above are carried over.
log2 vehicle/camptothecin viability | outcome | gene | reagent no.
-0.0653 | inactive | MCF2 (MCF.2 cell line derived transforming sequence) | 1
-0.595 | inactive | MCF2 (MCF.2 cell line derived transforming sequence) | 2
-0.227 | inactive | MCF2 (MCF.2 cell line derived transforming sequence) | 3
-0.327 | inactive | MCF2 (MCF.2 cell line derived transforming sequence) | 4
0.257 | inactive | HMGCR (3-hydroxy-3-methylglutaryl-CoA reductase) | 1
0.213 | inactive | HMGCR (3-hydroxy-3-methylglutaryl-CoA reductase) | 2
-0.102 | inactive | HMGCR (3-hydroxy-3-methylglutaryl-CoA reductase) | 3
0.0319 | inactive | HMGCR (3-hydroxy-3-methylglutaryl-CoA reductase) | 4
-0.255 | inactive | RNF113B (ring finger protein 113B) | 1
-0.128 | inactive | RNF113B (ring finger protein 113B) | 2
-0.316 | inactive | RNF113B (ring finger protein 113B) | 3
-0.00267 | inactive | RNF113B (ring finger protein 113B) | 4
0.621 | active | GIT2 (GIT ArfGAP 2) | 1
0.721 | active | GIT2 (GIT ArfGAP 2) | 2
-0.125 | active | GIT2 (GIT ArfGAP 2) | 3
0.841 | active | GIT2 (GIT ArfGAP 2) | 4
-0.488 | inactive | OR51E2 (olfactory receptor family 51 subfamily E member 2) | 1
-0.0022 | inactive | OR51E2 (olfactory receptor family 51 subfamily E member 2) | 2
-0.155 | inactive | OR51E2 (olfactory receptor family 51 subfamily E member 2) | 3
-0.364 | inactive | HEPACAM (hepatic and glial cell adhesion molecule) | 1
0.148 | inactive | HEPACAM (hepatic and glial cell adhesion molecule) | 2
-0.132 | inactive | HEPACAM (hepatic and glial cell adhesion molecule) | 3
-0.129 | inactive | HEPACAM (hepatic and glial cell adhesion molecule) | 4
-0.195 | inactive | IL9R (interleukin 9 receptor) | 1
-0.0232 | inactive | IL9R (interleukin 9 receptor) | 2
0.262 | inactive | IL9R (interleukin 9 receptor) | 3
-0.129 | inactive | IL9R (interleukin 9 receptor) | 4
-0.215 | inactive | SPATA20 (spermatogenesis associated 20) | 1
-0.164 | inactive | SPATA20 (spermatogenesis associated 20) | 2
-0.495 | inactive | SPATA20 (spermatogenesis associated 20) | 3
-0.532 | inactive | SPATA20 (spermatogenesis associated 20) | 4
-0.358 | inactive | RNF220 (ring finger protein 220) | 1
-0.757 | inactive | RNF220 (ring finger protein 220) | 2
-0.315 | inactive | RNF220 (ring finger protein 220) | 3
-0.403 | inactive | MINK1 (misshapen like kinase 1) | 1
-0.234 | inactive | MINK1 (misshapen like kinase 1) | 2
-0.591 | inactive | MINK1 (misshapen like kinase 1) | 3
-0.322 | inactive | MINK1 (misshapen like kinase 1) | 4
-0.133 | inactive | CR1L (complement C3b/C4b receptor 1 like) | 1
0.232 | inactive | CR1L (complement C3b/C4b receptor 1 like) | 2
-0.0138 | inactive | CR1L (complement C3b/C4b receptor 1 like) | 3
-0.508 | inactive | CR1L (complement C3b/C4b receptor 1 like) | 4
-0.00437 | inactive | RNF43 (ring finger protein 43) | 1
0.0882 | inactive | RNF43 (ring finger protein 43) | 2
-0.322 | inactive | RNF43 (ring finger protein 43) | 3
-0.0913 | inactive | RNF43 (ring finger protein 43) | 4
